Reference: patent publication US12378250B2, “Tricyclic compound as IRAK4 inhibitor” (KOREA RESEARCH INSTITUTE OF CHEMICAL TECHNOLOGY, priority 2018, dated 2025)

The chains behind the UniProt entries cited, without tags or fusion partners.
UniProt Q9NWZ3, whole entry: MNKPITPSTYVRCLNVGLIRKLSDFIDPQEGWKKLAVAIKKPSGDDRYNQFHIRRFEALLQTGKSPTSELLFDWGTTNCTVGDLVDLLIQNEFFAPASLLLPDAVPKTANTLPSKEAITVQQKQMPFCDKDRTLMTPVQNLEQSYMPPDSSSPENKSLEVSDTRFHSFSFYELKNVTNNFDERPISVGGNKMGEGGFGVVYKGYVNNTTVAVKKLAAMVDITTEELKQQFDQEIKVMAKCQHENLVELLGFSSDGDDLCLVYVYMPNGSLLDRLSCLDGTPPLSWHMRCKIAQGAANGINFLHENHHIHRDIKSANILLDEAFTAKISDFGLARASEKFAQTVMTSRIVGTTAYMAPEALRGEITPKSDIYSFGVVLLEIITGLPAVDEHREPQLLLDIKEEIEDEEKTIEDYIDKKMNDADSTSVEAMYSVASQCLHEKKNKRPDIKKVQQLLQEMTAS

Molecular target: IRAK4 enzyme (Homo sapiens, UniProt Q9NWZ3)
Assay: IRAK4 enzyme inhibition degree (bead-based kinase assay, peptide substrate BMKC-2, 100 μM ATP)
Experimental: 2.5 μl of a compound diluted to 4-fold of a final concentration was put into a 384-well white plate (low volume). 2.5 μl of 0.4 ng/μl IRAK4 enzyme was added thereto, and the resulting mixture was totally reacted for 10 minutes. 5 μl of a mixed liquid of a 6 μM peptide substrate (BMKC-2) and 100 μM ATP was added thereto, the resulting mixture was reacted at room temperature for 60 minutes, then 2.5 μl of 10 mM EDTA was added thereto, and the resulting mixture was reacted again for 10 minutes. 40 nM anti-phospho Thr antibody was aliquoted to 2.5 μl each, 5 μl of a mixed solution of a 160 μl/ml acceptor bead and a donor bead was added thereto, and then the resulting mixture was reacted at room temperature for 60 minutes. Fluorescence signals were measured using a bead experimental apparatus (Fusion alpha-FP Microplate Reader, Perkin Elmer Inc.).
From the detected signal, an activity inhibition rate [% inhibition degree=(the average value of a compound−the average value of a negative control)/(the average value of a positive control−the average value of a negative control)×100] was calculated, and is shown in [Table 1]. Further, a % inhibition degree of the compound at each concentration was obtained, and then a 50% inhibition concentration (IC50 value) was analyzed by a non-linear regression analysis.

## CCn1c(-c2ccc3[nH]c4ncnc(N[C@H]5CC[C@H](N6CCOCC6)CC5)c4c3c2)n[nH]c1=O
  IC50: 314 nM
Compound 1 μM
  % Inhibition degree @ 1 μM: 79%

The match of structure and compound is tentative.
